# At least one peptide structure holds a part that was inferred or is arguable (an end, a ring closure or a residue).
# Test system: doxorubicin-resistant colorectal carcinoma LS174t
# Assay: LS174t human colorectal carcinoma xenograft efficacy
# Type: in vivo, nude mice
# Conditions: both doses, 53 and 68 mg/kg, Q5DX5
# Method: In repeat-dose studies in tumor bearing mice, groups of ten mice were dosed with various amounts of prodrug for a total of five doses at either five day or 1 week intervals.
smiles,measurement,value
CC[C@H](C)[C@H](NC(=O)CCNC(=O)CCC(=O)O)C(=O)N[C@@H](C)C(=O)N[C@@H](CC(C)C)C(=O)N[C@H]1C[C@H](O[C@H]2C[C@](O)(C(=O)CO)Cc3c(O)c4c(c(O)c32)C(=O)c2c(OC)cccc2C4=O)O[C@@H](C)[C@H]1O [Suc-βAla-Ile-Ala-Leu-Dox],reducing the growth of tumors compared with vehicle control,efficacious
